Data from the primary screen of doi:10.1371/journal.pone.0140310, rounded.

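Human melanoma cell lines in 1,536-well plates were treated with a pair of drugs for 72 h, then fixed, stained and imaged. Each value is the cleaved-PARP-positive fraction of nuclei relative to DMSO-treated wells, in %, so that 100 equals the control and higher values mean more apoptosis. Every drug was used at one fixed concentration, the higher of two screened. The file gives one value for each pair and line, without errors, so small differences may be noise. Basal and induced levels differ widely between cell lines.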
Only some of the drugs and lines screened are listed, without regard to their results.
A dash means that no value is listed here.

Compounds and concentrations:
temozolomide, 10 µM: Cn1nnc2c(C(N)=O)ncn2c1=O
GW0742, 10 µM: Cc1cc(SCc2sc(-c3ccc(C(F)(F)F)c(F)c3)nc2C)ccc1OCC(=O)O
dorsomorphin, 2 µM: c1cc(-c2cnn3cc(-c4ccc(OCCN5CCCCC5)cc4)cnc23)ccn1
veliparib, 7 µM: C[C@]1(c2nc3c(C(N)=O)cccc3[nH]2)CCCN1
fingolimod, 10 µM: CCCCCCCCc1ccc(CCC(N)(CO)CO)cc1
nutlin-3, 0.5 µM: COc1ccc(C2=N[C@@H](c3ccc(Cl)cc3)[C@@H](c3ccc(Cl)cc3)N2C(=O)N2CCNC(=O)C2)c(OC(C)C)c1
erlotinib, 4 µM: C#Cc1cccc(Nc2ncnc3cc(OCCOC)c(OCCOC)cc23)c1
sorafenib, 2 µM: CNC(=O)c1cc(Oc2ccc(NC(=O)Nc3ccc(Cl)c(C(F)(F)F)c3)cc2)ccn1
NVP-BEZ235, 0.02 µM: Cn1c(=O)n(-c2ccc(C(C)(C)C#N)cc2)c2c3cc(-c4cnc5ccccc5c4)ccc3ncc21

Combination	A375	SK-MEL-2	MZ2-MEL	SK-MEL-5	MeWo	SK-MEL-28	COLO 792	WM3526	C32	UACC-62	WM451Lu	A2058	RPMI-7951	MEL-HO	COLO 829
dorsomorphin + nutlin-3	190	79.5	25.1	92.7	86.1	84.7	38.0	137	135	213	24.4	112	54.2	176	93.6
veliparib + temozolomide	86.7	243	234	174	160	355	375	221	189	188	196	894	214	78.7	101
NVP-BEZ235 + erlotinib	67.0	136	119	199	70.7	147	274	164	177	287	163	250	204	67.0	50.6
dorsomorphin + temozolomide	145	69.0	93.2	145	51.3	742	98.7	112	113	264	289	383	73.8	21.7	77.3
veliparib + sorafenib	70.6	76.9	95.4	80.3	86.4	142	44.9	80.3	158	118	68.1	189	298	121	131
temozolomide + nutlin-3	114	43.6	64.0	135	113	243	206	132	75.4	285	107	678	203	415	226
erlotinib + dorsomorphin	36.3	97.3	222	319	88.1	244	256	159	165	227	104	478	106	147	132
NVP-BEZ235 + GW0742	78.8	84.1	69.6	82.8	55.1	143	36.3	85.0	77.2	206	48.8	70.9	64.7	46.3	85.8
NVP-BEZ235 + nutlin-3	85.6	132	195	62.6	152	218	184	200	197	265	52.4	148	168	115	152
fingolimod + GW0742	52.5	3960	10000	333	2310	9910	317	3040	1730	555	8180	3640	3420	523	212
sorafenib + temozolomide	115	95.1	171	201	69.4	369	117	94.5	140	264	37.0	309	247	89.7	61.9
dorsomorphin + fingolimod	119	4910	182	1460	819	4240	3240	248	1790	630	5230	2090	518	1310	297
nutlin-3 + GW0742	101	21.7	70.6	155	174	65.5	72.7	91.5	122	107	80.4	86.1	188	80.3	78.7
nutlin-3 + erlotinib	138	79.9	146	76.4	92.1	226	427	165	157	282	101	146	41.9	44.4	177
sorafenib + nutlin-3	42.1	127	159	108	15.2	81.0	58.2	78.0	61.2	195	63.1	94.7	56.2	49.3	136
dorsomorphin + GW0742	83.9	93.6	64.5	163	98.4	245	28.0	43.6	120	35.7	79.9	161	150	98.3	94.6
nutlin-3 + fingolimod	527	2460	831	323	642	22400	11800	3980	1570	280	25900	2830	4880	1240	302
veliparib + fingolimod	121	4260	1090	94.0	152	1080	3610	213	388	366	1380	1430	1560	745	143
GW0742 + erlotinib	23.2	-	-	242	104	63.9	235	126	95.6	181	164	217	168	56.3	175
sorafenib + erlotinib	73.0	178	130	936	170	186	106	164	201	134	93.0	155	186	43.3	50.2
veliparib + GW0742	145	237	127	153	95.1	703	111	103	106	167	311	125	62.1	46.6	145
veliparib + nutlin-3	162	214	195	221	157	121	196	183	206	293	45.1	116	48.1	93.6	152
sorafenib + GW0742	100	205	114	48.1	113	197	35.6	119	151	74.5	160	118	60.5	191	104
NVP-BEZ235 + veliparib	109	181	60.5	170	70.3	69.1	111	156	118	270	146	153	115	56.8	268
NVP-BEZ235 + temozolomide	106	72.0	123	125	63.2	752	131	210	234	352	115	330	131	127	167
sorafenib + NVP-BEZ235	43.4	163	-	163	21.9	55.9	120	123	325	375	49.0	175	147	102	140
sorafenib + dorsomorphin	74.5	67.9	69.7	203	194	91.3	69.3	116	135	100	85.6	193	295	86.4	98.9
fingolimod + erlotinib	94.8	10600	13800	779	228	13600	13200	3800	582	214	9540	1840	3930	11800	2890
sorafenib + fingolimod	103	31500	8770	1940	1150	6080	11200	3050	496	265	916	365	1720	12800	94.1
temozolomide + fingolimod	110	167	90.8	80.2	132	1240	202	159	1750	554	501	2290	3410	276	201

The last 2 entries again:

Combination	A375	SK-MEL-2	MZ2-MEL	SK-MEL-5	MeWo	SK-MEL-28	COLO 792	WM3526	C32	UACC-62	WM451Lu	A2058	RPMI-7951	MEL-HO	COLO 829
sorafenib + fingolimod	103	31500	8770	1940	1150	6080	11200	3050	496	265	916	365	1720	12800	94.1
temozolomide + fingolimod	110	167	90.8	80.2	132	1240	202	159	1750	554	501	2290	3410	276	201